Here are results for one substance from paper PMC8520724.

By UniProt entry, the sequences of proteins in these tests, tags left out.
UniProt Q96EB6: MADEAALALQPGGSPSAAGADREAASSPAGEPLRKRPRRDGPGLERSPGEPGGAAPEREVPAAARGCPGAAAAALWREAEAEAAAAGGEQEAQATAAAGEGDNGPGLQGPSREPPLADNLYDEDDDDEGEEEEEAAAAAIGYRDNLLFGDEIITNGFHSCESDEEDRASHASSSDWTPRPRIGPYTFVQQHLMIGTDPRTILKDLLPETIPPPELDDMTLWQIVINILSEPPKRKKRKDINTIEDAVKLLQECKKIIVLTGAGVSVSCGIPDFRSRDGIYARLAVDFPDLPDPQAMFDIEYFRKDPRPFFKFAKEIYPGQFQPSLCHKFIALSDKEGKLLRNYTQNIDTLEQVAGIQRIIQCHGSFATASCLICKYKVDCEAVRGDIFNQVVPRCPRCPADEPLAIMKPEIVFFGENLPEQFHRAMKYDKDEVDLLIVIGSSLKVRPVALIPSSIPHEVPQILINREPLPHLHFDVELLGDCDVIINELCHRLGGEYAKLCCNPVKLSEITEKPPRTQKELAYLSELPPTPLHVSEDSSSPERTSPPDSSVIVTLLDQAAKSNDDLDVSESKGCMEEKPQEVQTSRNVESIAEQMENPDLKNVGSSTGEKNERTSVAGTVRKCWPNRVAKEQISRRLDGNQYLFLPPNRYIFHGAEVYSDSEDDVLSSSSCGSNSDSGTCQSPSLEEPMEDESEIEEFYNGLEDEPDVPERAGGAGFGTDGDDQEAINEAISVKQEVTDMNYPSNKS
UniProt P08670: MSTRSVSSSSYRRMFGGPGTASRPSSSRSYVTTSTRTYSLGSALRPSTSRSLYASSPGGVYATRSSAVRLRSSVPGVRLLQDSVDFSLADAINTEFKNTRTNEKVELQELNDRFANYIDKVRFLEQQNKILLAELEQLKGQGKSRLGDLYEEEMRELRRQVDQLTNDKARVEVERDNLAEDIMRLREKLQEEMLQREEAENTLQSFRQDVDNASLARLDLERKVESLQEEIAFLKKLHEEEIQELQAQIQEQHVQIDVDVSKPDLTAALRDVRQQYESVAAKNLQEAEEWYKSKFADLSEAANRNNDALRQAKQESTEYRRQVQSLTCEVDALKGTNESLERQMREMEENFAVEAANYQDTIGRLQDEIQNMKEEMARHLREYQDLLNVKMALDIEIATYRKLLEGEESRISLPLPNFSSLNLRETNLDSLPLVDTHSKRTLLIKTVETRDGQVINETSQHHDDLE

This assay addresses SIRT1 (human (endogenous in HTR8/SVneo cells and human first-trimester villi)) (UniProt Q96EB6). Put plainly: co-IP; reciprocal: anti-SIRT1 or anti-vimentin antibody on Protein A/G magnetic beads, 400 μg lysate of human first-trimester villi or of HTR8/SVneo cells in IP lysis buffer, 8 h; matched IgG isotype control; immunoblot.

These are yes or no findings as the source states them, for the method shown. In cells and extracts the contact can be indirect. Some binding calls cover weakened binding; strength is not graded here.

As for vimentin (from UniProt P08670 1-466), the binding entry is listed as “binds”.
